Test results published in PubChem BioAssay AID2685 (National Center for Advancing Translational Sciences (NCATS), 2010).
This is one part of the list. These are further read-outs of the screen, such as a control signal, another cell line or another target. No call is given for them. Most of these compounds were active or inconclusive in the main read-out, so they are no random draw. The note in brackets gives the kind of curve behind each potency; many fits are weak.

Experiment: qHTS Assay for Lipid Storage Modulators in Drosophila S3 Cells;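 for cell number change: cells counted by Cell Tracker Red CMTPX staining in the red channel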
Settings: BODIPY lipid droplet fluorescence, 18-24 h; for cell number change: measured here: cell count max response, cells fed with added oleic acid
How it was run: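 Drosophila S3 cells got compounds at several concentrations plus oleic acid (400 uM solution). Laser-scanning cytometry with 488 nm excitation read lipid droplets at 500-530 nm and cells at 575-640 nm. Percent activity was relative to 20 uM Triacsin C.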

[1] = measured here: lipid fluorescence (Fed channel) AC50, cells fed with added oleic acid
[2] = measured here: cell number channel AC50, cells fed with added oleic acid

SMILES | cell number change [%] | AC50 [1] | AC50 [2]
O=C(N[C@H]1CCC(=O)N([C@H](CSc2ccccc2)Cc2ccccc2)CC1)OCc1ccccc1 | -0.647 | 0.0146 µM [falling, full curve, poor fit] | 
O=C(c1ccc2ccccc2c1)N1CCOCC1 | -11.6 |  | 
CCc1sc(NC(=O)COC)nc1-c1ccccc1 | 63.4 | 18.4 µM [rising, partial curve] | 29.1 µM [rising, single point]
COc1ccccc1CCNC(=O)C1CCN(c2nnc(C)c3c(C)n(-c4ccc(C)cc4)nc23)CC1 | -12 | 6.51 µM [rising, single point] | 0.164 µM [rising, partial curve]
C/C(=N\NC(=O)CN(c1ccccc1)S(C)(=O)=O)c1ccccc1O | 16.4 | 5.17 µM [falling, partial curve, poor fit] | 0.058 µM [falling, full curve, poor fit]
CCOc1ccccc1NC(=O)N1CCC(c2nc3ccccc3[nH]2)CC1 | 21.7 | 1.84 µM [rising, partial curve] | 
COc1ccccc1N(CC(=O)NCCC1=CCCCC1)S(=O)(=O)c1ccccc1 | -15 |  | 
CCNc1nc(-c2cc(C)n(Cc3ccco3)c2C)cs1 | -8.75 |  | 
CCCC1S/C(=N/N=C/c2ccco2)NC1=O (configuration not stated) | -34.4 | 20.6 µM [falling, partial curve, poor fit] | 
CCCCN(CCCC)CCNC(=O)Cc1nc2c(c(=O)[nH]c(=O)n2C)n1C | 5.32 |  | 
COc1ccc(CCNC(=O)c2ccccc2Cl)cc1OC | 6.15 | 29.1 µM [rising, single point] | 
O=C(O)c1c(-c2ccccc2)c(-c2ccccc2)nc2ccccc12 | -34.6 |  | 7.31 µM [falling, single point]
O=C(C1CCC1)N(CCc1ccccc1)Cc1nc2ccccc2c(=O)[nH]1 | -15.9 | 0.164 µM [rising, single point] | 
CCCOC(=O)C1=C(C)N(C)C(=O)NC1c1cc2c(cc1[N+](=O)[O-])OCO2 (configuration not stated) | -70.8 |  | 29.1 µM [falling, single point]
Clc1ccc(SCc2cc(-c3ccc(Cl)cc3)on2)cc1 | 41.7 | 5.8 µM [falling, single point] | 
Cc1cc2cc(CNC(=O)c3ccc4c(c3)OCO4)ccc2[nH]1 | 20.8 | 0.103 µM [rising, full curve, poor fit] | 
O=C(Nc1nc(-c2ccc(S(=O)(=O)N3CCCC3)cc2)cs1)c1cccs1 | -34.5 |  | 16.4 µM [falling, partial curve, poor fit]
COc1ccc(C(C)=O)cc1CN1C(=O)NC2(CCCCCC2)C1=O | 39 |  | 14.6 µM [rising, partial curve]
CCOc1ccc(N=c2scc(-c3ccccc3)n2CCO)cc1 | -83.8 | 2.91 µM [rising, partial curve] | 29.1 µM [falling, single point]

Another view of some results above.
SMILES	cell number change [%]	AC50 [1]	AC50 [2]
O=C(N[C@H]1CCC(=O)N([C@H](CSc2ccccc2)Cc2ccccc2)CC1)OCc1ccccc1	-0.647	0.0146 µM [falling, full curve, poor fit]	
CCCCN(CCCC)CCNC(=O)Cc1nc2c(c(=O)[nH]c(=O)n2C)n1C	5.32		

Further compounds

SMILES | cell number change [%] | AC50 [1] | AC50 [2]
S=C(NCCc1ccccc1)Nc1ccc(Cl)cc1Cl | -32.4 | 16.4 µM [falling, partial curve, poor fit] | 23.1 µM [falling, partial curve]
COc1ccc(CCNS(=O)(=O)c2ccc(F)cc2)cc1OC | -32.6 |  | 18.4 µM [falling, single point]
COc1ccc(NC(=O)CSc2nnc(COc3ccccc3)n2Cc2ccco2)cc1OC | -22.3 | 29.1 µM [falling, single point] | 
COc1ccc(S(=O)(=O)NC2CCSc3ccccc32)cc1OC (configuration not stated) |  | 6.51 µM [rising, single point] | 
CC1(C)C2CCC1(C)C(OC(=O)CC(=O)O)C2 (configuration not stated) | 0.23 | 4.11 µM [falling, single point] | 
COc1ccc(C(=O)NC(Cc2ccc(OC(=O)c3ccc(OC)cc3)cc2)C(=O)O)cc1 (configuration not stated) | 36.6 | 6.51 µM [rising, single point] | 0.0058 µM [rising, full curve, poor fit]
COc1ccc(NS(=O)(=O)c2cc(NC(=O)CC(=O)c3ccc([N+](=O)[O-])cc3)ccc2C)cc1 | 41.5 |  | 
CCOc1nc(C)ccc1-c1noc(-c2ccccn2)n1 |  | 0.259 µM [rising, partial curve, poor fit] | 
CCC(=O)Nc1ccc(C(=O)N/N=C/c2c(C)[nH]c3ccccc23)cc1 | -30.8 |  | 
CC(Sc1nnc(CNC(=O)c2ccco2)n1C)C(=O)Nc1nccs1 (configuration not stated) | -16.2 | 29.1 µM [falling, single point] | 
CCN(CC)CCCNC(=O)c1cc2c(-c3cccc(OC)c3)nn(C)c2s1 | 4.49 |  | 
COc1ccc(Cc2nnc(SCC(=O)Nc3ccc(C)c(C)c3)o2)cc1OC | -9.21 |  | 
O=C(CCc1nnc2ccc(NCc3ccco3)nn12)N1CCN(c2ccccc2F)CC1 | -24.2 | 6.51 µM [rising, single point] | 
CC1CCCCN1C(=O)CSc1nc(C2CC2)nc2c1cnn2-c1ccccc1 (configuration not stated) |  |  | 6.51 µM [rising, partial curve, poor fit]
O=C(Nc1ccc(S(=O)(=O)Nc2nccs2)cc1)c1nn(-c2ccccc2)ccc1=O | 11.3 | 0.517 µM [rising, single point] | 
Cc1cc(C)n(-c2ccc(C(=O)Nc3ccc4c(c3)OCO4)cc2)n1 | 128 | 0.092 µM [rising, full curve, poor fit] | 0.0731 µM [rising, full curve, poor fit]
COc1ccc(C(=O)NC(=S)Nc2ccc(CN3CCOCC3)cc2)cc1Br | 1.22 | 29.1 µM [falling, partial curve, poor fit] | 0.058 µM [rising, full curve, poor fit]
Cc1cc(C)n(-c2nc3c(c(=O)[nH]c(=O)n3C)n2C(C)C)n1 | -4.27 | 7.31 µM [rising, single point] | 
O=C(/C=C/c1cccc([N+](=O)[O-])c1)Nc1cccc(NC(=O)c2cccs2)c1 |  | 1.84 µM [rising, partial curve] | 
